Laboratory results reported in patent US20220306734A1 (H LUNDBECK A S, published 2022).
Substitutions are numbered along the chain they refer to. No constants are given. Whether binding was seen depends on the method and setting. Some entries that bind do so weakly or less than the wild type.

B1: mGluR5 Ab12 (antibody, V domains shown)
VH: QSVEESGGRLVTPGTPLTLTCTVSGIDLSSNAMGWVRQAPGKGLEWIGIIYASGNAWYANWVKGRFTISKTSTTVDLKITSPTTEDTATYFCARDATATWDYFNLWGQGTLVTVSS
VL: AYDMTQTPSSVSAAVGGTVTIKCQASQSISNWLSWYQQKPGQPPKLLIYRASTLASGVSSRFSGSGSGTEFTLTISDLECADAATYYCQQGYSVANVDNAFGGGTEVVVKR
notes: Rabbit variable regions on human heavy and light chain constant regions (chimeric)
B2: mGluR5 Ab1 (antibody, V domains shown)
VH: QQQLEESGGGLVKPGGTLTLTCKVSGIDFSSYYYMCWVRQAPGKGLEWIACIYAGDGGTYYASWAKGRFTSSKTSSTTVTLQMTSLTAADTATYFCARGSGVGSYGYSLWGPGTLVTVSS
VL: DIVMTQTPASVEAAVGGTVTIKCQASESIYSNLAWYQQKPGQPPKLLIYRASNLESGVPSRFKGSGSGTEFTLTISDLECADAATYYCQGYYASTTTNAFGGGTEVVVKR
notes: as for B1
B3: mGluR5 Ab2 (antibody, V domains shown)
VH: B2 VH with V24A, S31G, I52V, A54T, S71I, S108N, P112Q
VL: B2 VL with S94I
notes: as for B1
B4: mGluR5 Ab4 (antibody, V domains shown)
VH: B2 VH with V24G, S30N, S31D, Y33Q, A54N, G58E, S63H, S71I, S108N, L109F
VL: B2 VL with P40A, E55A, T96V, A99G
notes: as for B1
B5: mGluR5 Ab8 (antibody, V domains shown)
VH: QSVEESGGRLVTPGTPLTLTCSVSGIDLSSYAMSWVRQAPGKGLEWIGVIYASGSTYYASWAKGRFTISKTSTTVDLKITSPTTGDTATYFCVRDTTATYNYFNLWGQGTLVTVSS
VL: AYDMTQTPASVEVAVGGTATIKCQASQSIYNYLAWYQQKPGQPPKLLIYEASTLASGVPSRFKGSGSGTEFTLTISDLECADAATYYCQQSLSPSNVGRRVFGGGTEVVVKR
notes: as for B1
B6: mGluR5 Ab9 (antibody, V domains shown)
VH: QSVEESGGRLVTPGTPLTLTCTVSGFSLNNYAMNWIRQAPGKGLEWIGIIYGSGSTYYASWAKGRFTASKTSTTVDLKMTSLTTEDTATYFCARDELAAGINYFTLWGQGTLVTVSS
VL: ALVMTQTPASVEVAVGGTVTIKCQASQNIIDWCSWYQQKLGQPPKLLIYEASKLASGVPSRFKGSGSGTQFTLTISGVECADAATYYCQQGYSPSGVDNVFGGGTEVVVKR
notes: as for B1
B7: mGluR5 Ab7 (antibody, V domains shown)
VH: QSVEESGGRLVTPGTPLTLTCTVSGFSLSRYAMGWVRHVPGKGLEWIGIIYASGSTYYASWAKGRFTISKTSTTVDLKITSPTTEDTATYFCARSRTATYDAVDPWGPGTLVTVSS
VL: AYDMTQTPASVSEPVGGTVTIKCQASQSISSYLSWYQQKPGQPPKLLIYEASTLASGVSSRFKGSGSGTEYTLTISDLECDDAAAYYCQQDLSGSNLDNSFGGGTEVVVKR
notes: as for B1
B8: mGluR5 Ab5 (antibody, V domains shown)
VH: QEQLVESGGGLVQPEGSLTLTCTASGIDFSSGYFMCWVRQAPGKGLEWIACISPYSDNTWYANWAKGRFTISKTSSTTVTLQMTSLTAADTAAYRCARTMAIGAYNPFKLWGQGTLVTVSS
VL: ALVMTQTPSSVSAAVGGTVTINCQASQNIYSNLAWYQQKPGQRPKLLIYDASDLASGVSSRVKGSGSGTEFTLTISDLECADAATYYCQGYYSGNAFGGGTEVVVKR
notes: as for B1
B9: mGluR5 Ab6 (antibody, V domains shown)
VH: QSLEESGGRLVTPGGTLTLTCTVSGIDLSSYAMSWVRQAPGKGLEWIGIIYASGNTWYANWVKGRFTISKTSTTVDLKMTSPTTEDTATYFCARDSSATFNYLDLWGQGTLVTVSS
VL: AFHMTQTPASMEVAVGGTVTMKCQASESIDTYLNWYQQKPGQPPKLLIYQASKLASGVPSRFKGSGSGTEFTLTISGVECADAATYYCQQGWSTNDVDNVFGGGTEVVVKR
notes: as for B1
B10: mGluR5 Ab11 (antibody, V domains shown)
VH: QSLEESGGGLVKPGGTLTLTCTASGFSFSSSYWICWVRQAPGKGLEWIGCIYGSTDAYNANWAKGRFAISQTSSTTVTLQMTSLPAADTATYFCARHDGDIGWTLDLWGPGTLVTVSS
VL: AYDMTQTPASVEVAVGGTVTIKCQASLTIGTRLAWYQQKPGQPPKLLIYKASTLASGVSSRFKGSGSGTQFALTISDLECADAATYYCQQAAYVTDIDNAFGGGTEVVVKR
notes: as for B1
B11: mGluR5 Ab10 (antibody, V domains shown)
VH: QSLEESGGRLVTPGTPLTLTCTVSGIDLSSYAVGWVRQAPGKGLEYIGIIYASGNTWYASWVKGRFTISKTSTTVDLKMTSLTTEDTATYFCARGHGATYDYFNLWGPGTLVTVSS
VL: AYDMTQTPASVEVAVGGTVTIKCQASQSISSWLAWYQQKPGQPPKLLIYDASDLASGVPSRFKGSGSGTEYTLTISGVQCDDAATYYCQQGLATANVDNVFGGGTEVVVKR
notes: as for B1

The binders below were run against cynomolgus monkey mGluR5 extracellular domain (monkey-mGluR5-ECD) (cynomolgus monkey) (assay: HTRF, soluble ECD).

binding, binds:
B1
B2
B3
B4
B5
B6
B7
B8
B9
B10
B11
